Paper PMC12429880 (Molecules, 2025)
End groups of sequences in plain letters are not given here.

Experiment: general procedure: Fmoc solid-phase peptide synthesis; Rink Amide Pro-Tide resin (0.56 mmol/g); DIC / Oxyma Pure
Conditions: whole synthesis, scale of the general procedure 0.1 mmol

Sequence | crude LC-MS purity
CHWYGYTPENVI | purity 99%
CHWYGYTPQNVI | purity 98%
NCVVGYIGERCQ | purity 99%
